Measured values as given in the supplement of paper PMC8256030.
± gives the standard deviation of the averaged measurements. The list shows a part of the results. Single values are uncertain here, since repeats match poorly.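 HEK293T cells were given each compound shortly before transfection with a reporter in which red mCherry is followed by the SARS-CoV-2 frameshift element and then GFP in the −1 frame, so GFP appears only after frameshifting.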

How the values were obtained:
HEK293T = assay: percent viability (nuclei count) relative to control; higher = more viable cells; settings: 10 µM; 24 h
[1] = system: SARS-CoV-2 -1 PRF reporter mCherry-FSE-GFP(-1); assay: mCherry (red) intensity as percent of control; higher = higher upstream reporter expression; settings: 10 µM; 24 h; HEK293T
[2] = system: SARS-CoV-2 -1 PRF reporter mCherry-FSE-GFP(-1); assay: percent effect, decrease of GFP/mCherry ratio (-1 PRF reporter) relative to controls; higher = stronger frameshift inhibition; settings: 10 µM; 24 h; HEK293T

## CC[C@@H](C(N)=O)N1CCCC1=O [levetiracetam]
HEK293T
  percent viability: 277%
[1]
  mCherry: 111%
[2]
  percent effect: -1.38%

## O=C1NCN(c2ccccc2)C12CCN(CCCOc1ccc(F)cc1)CC2 [spiramide]
HEK293T
  percent viability: 35.4%
[1]
  mCherry: 89.2%
[2]
  percent effect: -2.76%

## COc1ccc2c3c1O[C@H]1[C@@H](O)CC[C@H]4[C@@H](C2)N(C)CC[C@@]341 [dihydrocodeine]
HEK293T
  percent viability: 263%
[1]
  mCherry: 97.1%
[2]
  percent effect: -3.51%

## NC1=NCC(c2ccc(C(F)(F)F)cc2)O1 (stereo unspecified) [fluminorex]
HEK293T
  percent viability: 151%
[1]
  mCherry: 104%
[2]
  percent effect: 1.99%

## CC[C@@]1(O)C(=O)OCc2c1cc1n(c2=O)Cc2cc3ccccc3nc2-1 [Camptothecin]
HEK293T
  percent viability: 142%
[1]
  mCherry: 35.6%
[2]
  percent effect: 9.32%

## Oc1cccc2cccnc12
HEK293T
  percent viability: 88.1%
[1]
  mCherry: 118%
[2]
  percent effect: -17.2%

## CN1CC[C@]23c4c5ccc(O)c4O[C@H]2[C@@H](O)C=C[C@H]3[C@H]1C5
HEK293T
  percent viability: 254%
[1]
  mCherry: 87%
[2]
  percent effect: -1.69%

## C[C@]12CCC(=O)C=C1C=C[C@@H]1[C@@H]2CC[C@@]2(C)[C@H]1CC[C@@]2(O)CCC(=O)O [canrenoic acid]
HEK293T
  percent viability: 124%
[1]
  mCherry: 72.1%
[2]
  percent effect: 0.0109%

## C#C[C@]1(O)C=C[C@H]2[C@@H]3CCC4=CC(=O)CC[C@@H]4[C@H]3CC[C@@]21CC [gestodene]
HEK293T
  percent viability: 138 ± 10%
[1]
  mCherry: 117 ± 19%
[2]
  percent effect: 0.59 ± 2.2%

## CC(N)Cc1ccc(O)cc1 (stereo unspecified)
HEK293T
  percent viability: 279%
[1]
  mCherry: 86.2%
[2]
  percent effect: -1.67%

## CNC(=O)Oc1ccc2c(c1)[C@]1(C)CCN(C)[C@@H]1N2C
HEK293T
  percent viability: 109%
[1]
  mCherry: 104%
[2]
  percent effect: -4.64%

## O=C(NC(=O)c1c(F)cccc1F)Nc1cc(Cl)c(OC(F)(F)C(F)C(F)(F)F)cc1Cl (stereo unspecified) [lufenuron]
HEK293T
  percent viability: 257%
[1]
  mCherry: 110%
[2]
  percent effect: 1.24%
